## Screening data, single-dose tests

By UniProt entry, the sequences of proteins in these tests, tags left out.
UniProt I6X8D2, whole entry: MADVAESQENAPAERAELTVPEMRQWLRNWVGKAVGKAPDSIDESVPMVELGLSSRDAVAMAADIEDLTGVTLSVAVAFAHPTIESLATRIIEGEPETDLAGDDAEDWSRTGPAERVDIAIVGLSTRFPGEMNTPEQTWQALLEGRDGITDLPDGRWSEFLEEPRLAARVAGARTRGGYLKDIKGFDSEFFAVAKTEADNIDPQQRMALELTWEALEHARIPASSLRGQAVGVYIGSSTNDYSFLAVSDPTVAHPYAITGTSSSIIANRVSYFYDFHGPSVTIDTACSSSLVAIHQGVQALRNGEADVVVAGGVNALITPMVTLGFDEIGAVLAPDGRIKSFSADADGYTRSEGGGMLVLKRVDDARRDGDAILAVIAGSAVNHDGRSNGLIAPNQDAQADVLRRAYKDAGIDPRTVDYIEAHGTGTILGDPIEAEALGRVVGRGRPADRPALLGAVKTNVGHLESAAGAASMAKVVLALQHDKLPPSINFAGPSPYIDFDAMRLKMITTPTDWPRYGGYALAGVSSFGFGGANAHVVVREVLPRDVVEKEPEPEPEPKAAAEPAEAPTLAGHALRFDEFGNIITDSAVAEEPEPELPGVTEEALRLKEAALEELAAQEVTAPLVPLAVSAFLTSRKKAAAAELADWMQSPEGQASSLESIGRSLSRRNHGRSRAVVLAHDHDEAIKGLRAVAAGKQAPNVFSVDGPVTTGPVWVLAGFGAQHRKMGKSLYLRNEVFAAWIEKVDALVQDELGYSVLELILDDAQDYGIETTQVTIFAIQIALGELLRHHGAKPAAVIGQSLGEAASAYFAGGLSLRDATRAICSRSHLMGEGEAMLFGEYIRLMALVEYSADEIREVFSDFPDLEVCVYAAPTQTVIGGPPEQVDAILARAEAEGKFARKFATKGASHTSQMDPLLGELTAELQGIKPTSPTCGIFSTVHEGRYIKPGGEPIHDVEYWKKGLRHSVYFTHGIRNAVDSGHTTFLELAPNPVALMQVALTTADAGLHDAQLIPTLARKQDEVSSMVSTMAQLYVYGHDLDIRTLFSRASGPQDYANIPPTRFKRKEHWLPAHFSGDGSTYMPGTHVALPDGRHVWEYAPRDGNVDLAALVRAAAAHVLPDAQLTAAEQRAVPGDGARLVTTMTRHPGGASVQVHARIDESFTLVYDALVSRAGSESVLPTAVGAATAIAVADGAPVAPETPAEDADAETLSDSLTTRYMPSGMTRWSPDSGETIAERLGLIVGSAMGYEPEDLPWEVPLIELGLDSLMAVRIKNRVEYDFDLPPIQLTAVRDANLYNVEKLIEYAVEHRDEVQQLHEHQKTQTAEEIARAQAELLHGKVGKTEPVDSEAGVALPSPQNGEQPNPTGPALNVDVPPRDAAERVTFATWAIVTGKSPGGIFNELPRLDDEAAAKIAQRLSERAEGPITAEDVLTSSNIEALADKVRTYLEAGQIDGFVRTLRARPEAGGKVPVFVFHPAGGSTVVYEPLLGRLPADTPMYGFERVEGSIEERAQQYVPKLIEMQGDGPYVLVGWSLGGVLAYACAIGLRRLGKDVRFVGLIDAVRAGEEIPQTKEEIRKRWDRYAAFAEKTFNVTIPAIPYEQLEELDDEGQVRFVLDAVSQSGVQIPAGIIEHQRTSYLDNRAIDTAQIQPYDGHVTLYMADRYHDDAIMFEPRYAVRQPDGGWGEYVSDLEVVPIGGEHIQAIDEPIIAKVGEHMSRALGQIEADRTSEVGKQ

From ChEMBL document CHEMBL3988442, “University of Dundee, Small-Polar-MMV Screening Library” (2021).

Each number is a percent effect as filed. How 0% and 100% were set is not recorded. Most values in the screen are low, and negative values occur. This is an unselected part of the compounds tested.

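Enzyme assay of the thioesterase domain of polyketide synthase 13; the read-out is not stated. Target: Polyketide synthase Pks13, Mycobacterium tuberculosis (UniProt I6X8D2). Compounds at 30 µM. The record gives no direction; the compounds picked for IC50 retests had high values, so higher reads as stronger inhibition. Size under these conditions: about 67,000 compounds, about 300 of them at 50% or above in at least one test.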

Compound	Percent Effect
Cc1noc(C)c1CN1CC[C@H]2C[C@H](c3ccncn3)O[C@@H]2C1	-14.6%
COCC[C@]1(O)CCN(c2ncc(Cl)cc2F)C[C@H]1C	-12.15%
COc1ncccc1NC(=O)N1CCOCC1C (stereo not shown)	-31.72%
O=C1CCCCN1CCc1nc(-c2cccnn2)no1	-4.912%
c1cncc(CO[C@H]2CO[C@@]3(CCN(Cc4ccoc4)C3)C2)c1	-26.89%
Nc1nc(N)c2c(n1)OC1(CCCN(Cc3nccs3)CC1)C2 (stereo not shown)	0.1431%
O=C(C1CCCN(Cc2ccccc2)C1)N1CCc2sccc2C1 (stereo not shown)	9.105%
O=C(CN1CC(c2nc(-c3ccco3)no2)C1)NCc1ccc(F)cc1	-7.609%
c1ccc(-c2cc(CNCCCN3CCCCC3)c3nnnn3c2)cc1	-3.718%
COc1cc(Cl)cc(C(=O)N2CCC3(CC2)CNC(=O)C3)c1	-10.07%
CC(NC(=O)NCc1cc(Br)cs1)c1ccccn1 (stereo not shown)	-6.258%
Cc1nc(NCc2noc(C3CCCO3)n2)c2sccc2n1 (stereo not shown)	32.05%
O=C(CCc1ccsc1)N1CCC(Nc2cccnn2)CC1	-28.62%
O=C(NCCc1ccccn1)[C@@]12CCO[C@@H]1CCN(c1ncccn1)C2	-25.55%
COCCO[C@@H]1CCN(C(=O)c2ccnnc2)[C@H]1Cc1cnn(C)c1	3.392%
Cc1cc(C(=O)NCC(=O)N2CCOCC2)nn1C(C)(C)C	-4.875%
CN1CCN(CC2CN(CC3CC3)Cc3nccn3C2)CC1 (stereo not shown)	-7.533%
c1cncc(OCc2n[nH]c3c2CN(Cc2cccs2)C3)c1	-3.523%
CCn1ccc(C(=O)N2CCCC2(C)c2nc(C)cc(N(C)C)n2)n1 (stereo not shown)	1.675%
CC(=O)Nc1ccc(CN2CCc3[nH]cnc3C2c2ccc(C)o2)cc1 (stereo not shown)	-31.06%
COCCO[C@@H]1CCN(C(=O)c2occc2C)[C@H]1Cc1cnn(C)c1	1.82%
O=C(CC1CN(Cc2ccccc2)CCO1)NC1CCSCC1 (stereo not shown)	-25.35%
CC(C)(C)OC(=O)Cn1nc(C2CC2)cc(C(F)(F)F)c1=O	-33.15%
CC1C(=O)NCCN1CCOc1ccc(C#N)cc1 (stereo not shown)	4.136%
Cc1nn(C2CCCCC2)c2nc(C(C)(C)CN3CCOCC3)[nH]c12	-5.59%
O=C(COCCOc1ccccc1)Nc1ccnn1CC1CCOC1 (stereo not shown)	-4.878%
COCC1CC2(CCN(C(=O)c3ccc(C)nc3)CC2)CO1 (stereo not shown)	-36.3%
CC(C)SCC(=O)NCc1cc2n(n1)CCCN(C1CCCCC1)C2	1.851%
CNc1cncc(C2CCCN2S(=O)(=O)c2ccccc2)n1 (stereo not shown)	38.82%
O=C(O)C(c1ccc2c(c1)OCCO2)N1CCCCCC1 (stereo not shown)	-4.651%
CCc1nc(C)c(CN2CCOC(CCCC(C)C)C2)[nH]1 (stereo not shown)	-14.95%
CN(CCOc1cccc(S(C)(=O)=O)c1)CC(F)F	-9.889%
O=C(NCc1cccnc1N1CCCCC1)c1cccs1	-8.863%
Cc1ccc(CNC(=O)CNCC2CCN(CCO)CC2)s1	-26.18%
Cn1ccnc1C(O)(CCNCc1ccco1)C(F)(F)F (stereo not shown)	8.835%
CC(=O)N[C@@H](C)C(=O)NCc1cccnc1Oc1ccccc1F	-31.03%
Cc1cc(NCCNc2cccnc2)nc(-c2ccccc2O)n1	14.31%
COCCS(=O)(=O)c1ncc(CN(C)CC(C)C)n1Cc1ccccc1	1.135%
Cc1ccc2ncn(C(C)Cn3cccn3)c(=O)c2c1 (stereo not shown)	-11.8%
O=C(NCCc1cc(=O)[nH]cn1)c1[nH]nc2c1CCCC2	14.15%
Cc1ccc(NC(=O)N(CCO)Cc2ccsc2)cc1	-23.05%
CCOc1ncccc1Cn1cc(-c2ccc(CO)o2)nn1	-29.73%
CC(=O)N1CCN(Cc2cccc3c2sc2ccccc23)CC(O)C1 (stereo not shown)	0.6375%
Cc1cc(CN2C[C@H]3CC[C@@H]2CN(Cc2c(C)noc2C)C3)ccc1F	-24.12%
CN(C)S(=O)(=O)N(C)C(c1cccnc1)c1ccc(F)c(F)c1 (stereo not shown)	12.02%
Cn1ccnc1CN1CCCC(Cc2ccccn2)C1 (stereo not shown)	-33.63%
COc1ccc(OC)c(CNc2nnc(C(C)(C)C)o2)c1	-5.121%
Cc1cc(S(C)(=O)=O)c(C)c(S(=O)(=O)NC2CCCC2)c1	-41.42%
CN1CCCN(C(=O)c2nc3sccn3c2-c2ncc[nH]2)CC1	-1.583%
CCc1ccc(CN(C)Cc2nc(COc3ccccc3)no2)nc1	-8.417%
CC1CCCN(C(=O)c2ccc(N(C)Cc3cnn(C)c3)nc2)C1 (stereo not shown)	9.119%

3 of the entries, repeated:

* COc1ccc(OC)c(CNc2nnc(C(C)(C)C)o2)c1 : -5.121%
* O=C(CN1CC(c2nc(-c3ccco3)no2)C1)NCc1ccc(F)cc1 : -7.609%
* COc1ncccc1NC(=O)N1CCOCC1C (stereo not shown) : -31.72%